# From publication PMC8648750
# By UniProt entry, the sequences of proteins in these tests, tags left out.
# UniProt Q9BUR4: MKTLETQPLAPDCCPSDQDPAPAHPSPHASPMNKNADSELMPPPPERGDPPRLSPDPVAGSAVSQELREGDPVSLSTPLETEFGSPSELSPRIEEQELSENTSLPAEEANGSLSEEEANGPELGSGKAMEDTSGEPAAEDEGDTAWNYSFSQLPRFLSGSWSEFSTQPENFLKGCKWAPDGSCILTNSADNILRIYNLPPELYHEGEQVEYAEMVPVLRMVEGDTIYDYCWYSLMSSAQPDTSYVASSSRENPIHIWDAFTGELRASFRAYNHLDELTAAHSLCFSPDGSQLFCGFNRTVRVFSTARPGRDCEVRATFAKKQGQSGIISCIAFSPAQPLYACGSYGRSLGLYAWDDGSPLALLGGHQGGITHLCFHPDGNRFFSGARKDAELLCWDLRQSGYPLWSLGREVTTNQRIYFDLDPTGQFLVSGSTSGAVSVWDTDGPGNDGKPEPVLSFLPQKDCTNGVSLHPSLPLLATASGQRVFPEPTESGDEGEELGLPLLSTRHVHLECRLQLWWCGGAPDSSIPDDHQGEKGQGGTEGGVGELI
# UniProt O14746: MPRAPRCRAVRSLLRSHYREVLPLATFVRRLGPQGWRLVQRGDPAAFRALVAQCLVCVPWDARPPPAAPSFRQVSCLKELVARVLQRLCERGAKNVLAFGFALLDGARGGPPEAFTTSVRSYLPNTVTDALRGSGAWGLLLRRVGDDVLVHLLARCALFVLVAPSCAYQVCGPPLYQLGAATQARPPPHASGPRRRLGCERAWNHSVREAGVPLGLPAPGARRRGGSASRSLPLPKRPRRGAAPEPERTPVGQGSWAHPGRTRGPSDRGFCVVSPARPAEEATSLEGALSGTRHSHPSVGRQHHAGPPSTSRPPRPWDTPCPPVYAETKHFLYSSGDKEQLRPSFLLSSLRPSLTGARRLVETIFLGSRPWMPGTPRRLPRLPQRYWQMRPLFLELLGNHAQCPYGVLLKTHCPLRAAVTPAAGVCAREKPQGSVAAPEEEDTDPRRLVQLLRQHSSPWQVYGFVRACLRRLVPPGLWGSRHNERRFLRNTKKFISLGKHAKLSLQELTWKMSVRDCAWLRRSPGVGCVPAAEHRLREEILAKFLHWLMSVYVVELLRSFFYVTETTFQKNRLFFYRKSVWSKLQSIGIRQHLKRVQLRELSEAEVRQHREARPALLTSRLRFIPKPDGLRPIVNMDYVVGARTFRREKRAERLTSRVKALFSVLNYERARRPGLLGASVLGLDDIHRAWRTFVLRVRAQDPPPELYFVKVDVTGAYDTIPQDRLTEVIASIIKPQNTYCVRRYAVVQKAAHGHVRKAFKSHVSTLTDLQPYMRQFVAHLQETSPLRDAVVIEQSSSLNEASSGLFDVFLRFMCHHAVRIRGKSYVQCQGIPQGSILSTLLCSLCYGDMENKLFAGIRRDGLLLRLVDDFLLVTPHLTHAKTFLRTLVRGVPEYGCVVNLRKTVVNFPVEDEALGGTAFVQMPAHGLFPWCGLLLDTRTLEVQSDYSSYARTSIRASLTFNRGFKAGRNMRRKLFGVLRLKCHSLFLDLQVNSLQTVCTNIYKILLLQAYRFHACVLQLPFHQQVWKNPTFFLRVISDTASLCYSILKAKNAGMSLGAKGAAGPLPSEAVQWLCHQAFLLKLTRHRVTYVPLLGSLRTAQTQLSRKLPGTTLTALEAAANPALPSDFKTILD
# No constants are given. Whether binding was seen depends on the method and setting. Binding seen in cells or lysates may run through a third protein. Here binding means that the protein was enriched with, or labelled near, the bait; the list need not be complete.
# Columns and labels:
# [1] = molecular target: telomerase Cajal body protein 1 (TCAB1), twin-strep-tagged (human) (UniProt Q9BUR4); assay: affinity purification with mass spectrometry; two-step tandem affinity purification from lysate of Tc6-3 cells co-expressing hTR: Strep-Tactin XT resin (twin-strep TCAB1), eluted with 50 mM biotin, then anti-Flag resin (triple Flag-TERT), eluted with Flag peptide; buffer A 20 mM HEPES pH 7.9, 200 mM KCl, 10% glycerol, 2 mM MgCl2, 1 mM EDTA, 0.1% IgePal CA-630; purified RNP analysed by mass spectrometry
# [2] = molecular target: telomerase reverse transcriptase (TERT) catalytic subunit, triple Flag-tagged (human) (UniProt O14746); assay: as above
Molecule,binding [1],binding [2]
"GAR1 (protein, UniProt Q9NY12 1-217) MSFRGGGRGGFNRGGGGGGFNRGGSSNHFRGGGGGGGGGNFRGGGRGGFGRGGGRGGFNKGQDQGPPERVVLLGEFLHPCEDDIVCKCTTDENKVPYFNAPVYLENKEQIGKVDEIFGQLRDFYFSVKLSENMKASSFKKLQKFYIDPYKLLPLQRFLPRPPGEKGPPRGGGRGGRGGGRGGGGRGGGRGGGFRGGRGGGGGGFRGGRGGGFRGRGH",binds,binds
"NHP2 (protein, UniProt Q9NX24 1-153) MTKIKADPDGPEAQAEACSGERTYQELLVNQNPIAQPLASRRLTRKLYKCIKKAVKQKQIRRGVKEVQKFVNKGEKGIMVLAGDTLPIEVYCHLPVMCEDRNLPYVYIPSKTDLGAAAGSKRPTCVIMVKPHEEYQEAYDECLEEVQSLPLPL",,binds

# Continued, values first:
binding [1],binding [2],Molecule
binds,,"telomerase reverse transcriptase (TERT) catalytic subunit, triple Flag-tagged (from UniProt O14746 1-1132) (enzyme)"
binds,binds,"NOP10 (protein, UniProt Q9NPE3 1-64) MFLQYYLNEQGDRVYTLKKFDPMGQQTCSAHPARFSPDDKYSRHRITIKKRFKVLMTQQPRPVL"
binds,binds,"dyskerin (protein, UniProt O60832 1-514) MADAEVIILPKKHKKKKERKSLPEEDVAEIQHAEEFLIKPESKVAKLDTSQWPLLLKNFDKLNVRTTHYTPLACGSNPLKREIGDYIRTGFINLDKPSNPSSHEVVAWIRRILRVEKTGHSGTLDPKVTGCLIVCIERATRLVKSQQSAGKEYVGIVRLHNAIEGGTQLSRALETLTGALFQRPPLIAAVKRQLRVRTIYESKMIEYDPERRLGIFWVSCEAGTYIRTLCVHLGLLLGVGGQMQELRRVRSGVMSEKDHMVTMHDVLDAQWLYDNHKDESYLRRVVYPLEKLLTSHKRLVMKDSAVNAICYGAKIMLPGVLRYEDGIEVNQEIVVITTKGEAICMAIALMTTAVISTCDHGIVAKIKRVIMERDTYPRKWGLGPKASQKKLMIKQGLLDKHGKPTDSTPATWKQEYVDYSESAKKEVVAEVVKAPQVVAEAAKTAKRKRESESESDETPPAAPQLIKKEKKKSKKDKKAKAGLESGAEPGDGDSDTTKKKKKKKKAKEVELVSE"
